Measurements reported in PubChem BioAssay AID686943 (Drosophila RNAi Screening Center, 2013).

- Purpose: 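Fly genes whose loss alters ERK activation after insulin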 (primary screen)
- Cells: Drosophila S2R+ haemocyte-like cells expressing YFP-tagged ERK (Rolled)
- Reagent: long dsRNA against Drosophila genes
- Challenge: insulin stimulation versus unstimulated cells; dose and duration not given
- Measured: 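Per-plate z-scores of phospho-ERK immunostaining normalised to YFP-tagged ERK, measured with and without insulin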
- Scale: replicate 1, z-score of dpERK with insulin and replicate 2, z-score of dpERK with insulin: higher = more active ERK per ERK-YFP after insulin
In all, the deposit lists about 23,000 reagents; this is a random part of those with a known target gene and a result. 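Extra replicates exist only for a retested subset of genes; insulin dose and duration not given; both raised and lowered dpERK matter.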 Reagents against one gene are numbered here. A plus sign joins genes that one reagent is predicted to hit. Further read-outs or replicates are left out here. Reagent sequences are not shown. Not given: the amount of reagent, the time to read-out.

With Amyrel, what does the deposit list?
replicate 1, z-score of dpERK with insulin: -0.5; replicate 2, z-score of dpERK with insulin: 0.16

Which result is listed for CG8924?
replicate 1, z-score of dpERK with insulin: -1.82; replicate 2, z-score of dpERK with insulin: -1.13

For RhoU #1, what does the deposit list?
replicate 1, z-score of dpERK with insulin: 0.81; replicate 2, z-score of dpERK with insulin: 0.19

For RhoU #2, what was measured?
replicate 1, z-score of dpERK with insulin: -0.4; replicate 2, z-score of dpERK with insulin: -0.29

Which result is listed for RhoU #3?
replicate 1, z-score of dpERK with insulin: 0.79; replicate 2, z-score of dpERK with insulin: 0.49

How did the screen score RhoU #4?
replicate 1, z-score of dpERK with insulin: -0.4; replicate 2, z-score of dpERK with insulin: 0.14

What did the screen give for RhoU #5?
replicate 1, z-score of dpERK with insulin: 0.38; replicate 2, z-score of dpERK with insulin: 0.36

How did the screen score fd3F?
replicate 1, z-score of dpERK with insulin: -3.45; replicate 2, z-score of dpERK with insulin: -2.19

Which result is listed for CG43218?
replicate 1, z-score of dpERK with insulin: -0.66; replicate 2, z-score of dpERK with insulin: 0.4

With cmb, how do the results read?
replicate 1, z-score of dpERK with insulin: -0.23; replicate 2, z-score of dpERK with insulin: -0.6

How did the screen score CG14868?
replicate 1, z-score of dpERK with insulin: 1.51; replicate 2, z-score of dpERK with insulin: 1.56

With asRNA:CR43259 + CG31089, what does the deposit list?
replicate 1, z-score of dpERK with insulin: 0.37; replicate 2, z-score of dpERK with insulin: -0.14
